# PubChem BioAssay AID686943 | Drosophila RNAi Screening Center, 2013
# Test: 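Knockdowns that increase or decrease active ERK after insulin receptor stimulation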 (primary screen)
# System: Drosophila S2R+ haemocyte-like cells expressing YFP-tagged ERK (Rolled)
# Knock-down reagent: long dsRNA against Drosophila genes
# Conditions: insulin stimulation versus unstimulated cells; dose and duration not given
# Measurement: 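Per-plate z-scores of phospho-ERK immunostaining normalised to YFP-tagged ERK, measured with and without insulin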
# Reading the numbers: replicate 1, z-score of dpERK with insulin and replicate 2, z-score of dpERK with insulin: higher = more active ERK per ERK-YFP after insulin; replicate 1, z-score of dpERK under basal conditions: higher = more basal active ERK per ERK-YFP; replicate 1, z-score of ERK-YFP with insulin: higher = more YFP-tagged ERK signal
# In all, the deposit lists about 23,000 reagents; below is a random part of those with a known target gene and a result. 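Extra replicates exist only for a retested subset of genes; insulin dose and duration not given; both raised and lowered dpERK matter.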 A plus sign joins genes that one reagent is predicted to hit. The record does not give: the amount of reagent, the time to read-out.
target,dsRNA,"replicate 1, z-score of dpERK with insulin","replicate 2, z-score of dpERK with insulin","replicate 1, z-score of dpERK under basal conditions","replicate 1, z-score of ERK-YFP with insulin"
Usp32 (Ubiquitin specific protease 32),DRSC10979,1.2,1.42,0.34,-0.24
CG8405,DRSC05599,0.79,-0.7,-0.96,0.36
CG8405,DRSC07166,-0.5,-0.82,-0.76,0.68
CG13983,DRSC02315,-0.42,0.01,-0.11,0.11
CG9044,DRSC03130,-0.13,0.8,-0.04,-0.27
lncRNA:CR34047 (long non-coding RNA:CR34047),DRSC07857,1.01,-0.23,0.02,-0.28
lncRNA:CR34047 (long non-coding RNA:CR34047),DRSC21689,0.33,0.25,0.84,0.65
CG3107,DRSC04888,0.1,0.22,0.38,0.27
Orcokinin,DRSC04202,-0.23,0.57,0.85,-0.19
SNCF (SoxNeuro Co-Factor),DRSC10115,0.32,0.62,-0.37,-1.14
Ack-like (Activated Cdc42 kinase-like),DRSC07500,-0.6,-0.21,0.15,0.28
Ack-like (Activated Cdc42 kinase-like),DRSC21845,-0.43,-0.96,-0.36,0.5
CG12402,DRSC14508,0.38,0.42,0.49,0.08
CG43069,DRSC05752,0.54,1.08,-2.1,-0.3
Delta,DRSC16648,5.63,1.16,0.76,-0.31
CG16863,DRSC01892,-0.39,-0.08,1.05,-0.44
Tim17a1,DRSC14184,0.47,0.52,0.75,0.18
NimB4 (Nimrod B4),DRSC01884,0.67,-0.45,0.27,-0.25
Nup54 (Nucleoporin 54kD),DRSC07282,-0.48,0.22,-0.09,0.05
mei-217 + mei-218,DRSC20349,0.15,1.18,0,-0.34
CG3604,DRSC00618,-0.82,-0.61,-0.03,0.53
CG16898,DRSC06635,-1.26,0.01,-0.13,0.72
Prp8 (pre-mRNA processing factor 8),DRSC07293,0.61,3.93,-0.74,-4.12
CG12477,DRSC09886,-0.65,-0.16,0.55,1.18
Or7a (Odorant receptor 7a),DRSC18691,0.23,-0.54,-0.02,0.19
MESR3 (Misexpression suppressor of ras 3),DRSC02463,-0.12,0.22,-0.27,-0.2
CG3078,DRSC18531,-1.85,0.16,0.42,-1.17
CG15754,DRSC19719,1.23,0.86,0.73,-1.17
Eaat1 (Excitatory amino acid transporter 1),DRSC03321,0.26,1.16,0.56,0.09
fend (forked end),DRSC17601,0.47,0.23,-1.45,-0.57
fend (forked end),DRSC17867,-0.08,-0.02,-1.47,0.58
Acp65Aa (Adult cuticle protein 65Aa),DRSC09663,0,0.36,-0.21,0.15
kl-2 (male fertility factor kl2),DRSC21136,-0.05,-0.5,-0.27,0.92
mim (missing-in-metastasis),DRSC05013,-2.02,-3.71,-1.2,-1.86
RhoL (Rho-like),DRSC16824,-1.63,-2.55,-0.14,0.29
CG16985,DRSC08501,-0.49,-0.73,0.55,0.74
Ipp (Inositol polyphosphate 1-phosphatase),DRSC16718,-1.85,0.62,2.21,0.9
CG10395,DRSC04840,-0.68,-0.3,0.12,2.06
CG4896,DRSC00671,-0.29,-1.33,-0.82,-0.69
CG13038,DRSC09919,2.03,0.63,1,0.49
CG34396,DRSC04245,-1.32,-0.72,-1.75,0.9
CG34396,DRSC04246,-0.25,0.17,-0.13,-0.24
CG1418,DRSC06447,0.71,0.84,-0.4,0.44
asRNA:CR43299 + CG8119,DRSC20083,-0.83,0.03,-0.56,-0.09
CG30485,DRSC06376,1.15,-0.08,-0.26,0.15
Ms (Myosuppressin),DRSC16041,0.11,-0.16,-1.05,0.09
kar (karmoisin),DRSC14496,-0.23,-0.19,0.01,0.25
CG9330,DRSC11066,0.34,-0.06,-0.22,-0.11
rad (retired record),DRSC18966,-0.42,0.67,1.36,0.19
rad (retired record),DRSC19687,1.73,1.08,0.57,0.16
rad (retired record),DRSC19816,-5.11,-4.9,-1.68,0.61
rad (retired record),DRSC22865,-0.08,0.03,-1.59,1.45
CG31729,DRSC02524,-0.24,0.05,0.86,0.5
CG31729,DRSC02946,-0.08,-0.46,1.39,-0.43
Sec61beta (Sec61 beta subunit),DRSC07548,0.26,-1.11,-0.67,0.12
Sec61beta (Sec61 beta subunit),DRSC21512,-0.13,-0.18,0.71,0.23
spn-D (spindle D),DRSC22641,-0.06,0.48,1.53,-0.35

Ordered by “replicate 2, z-score of dpERK with insulin” (highest first): some entries from above
target,dsRNA,"replicate 1, z-score of dpERK with insulin","replicate 2, z-score of dpERK with insulin","replicate 1, z-score of dpERK under basal conditions","replicate 1, z-score of ERK-YFP with insulin"
CG1418,DRSC06447,0.71,0.84,-0.4,0.44
CG34396,DRSC04246,-0.25,0.17,-0.13,-0.24
asRNA:CR43299 + CG8119,DRSC20083,-0.83,0.03,-0.56,-0.09
CG30485,DRSC06376,1.15,-0.08,-0.26,0.15
Ms (Myosuppressin),DRSC16041,0.11,-0.16,-1.05,0.09
kar (karmoisin),DRSC14496,-0.23,-0.19,0.01,0.25
CG34396,DRSC04245,-1.32,-0.72,-1.75,0.9
